# The list shows a part of the results.
# Tested on: T1, CTL2-GFP (C. trachomatis L2/434/Bu, GFP-expressing)
# T1 construct: L2/434/Bu, GFP-expressing
# Parameters: species or system HeLa; Intracellular C. trachomatis growth in HeLa cells, bulk GFP fluorescence relative to DMSO
# Details: bulk GFP, single well; 28.5 h, 10 µM; inhibitor
row,Structure (SMILES),% of control remaining
1,O=C(CSC1c2ccccc2Sc2ccccc21)Nc1ccc(C(=O)O)cc1 [CBK267542],89.8205%
2,OC(Cn1c(Cc2ccccc2)nc2ccccc21)Cn1c2ccc(Cl)cc2c2cc(Cl)ccc21 (centres unmarked) [CBK262546],100%
3,CCOC(=O)c1ccsc1NC(=O)C1CC=CCC1C(=O)O (centres unmarked) [CBK270291],147.599%
4,COc1cc(-c2nccnc2N(C)Cc2ccccc2)cc(OC)c1OC [CBK037424],178.293%
5,Cn1cc(-c2nccnc2OC(c2ccccc2)c2ccccc2)cn1 [CBK107073],145.748%
6,Oc1cc(C(F)(F)F)nc(SCc2ccc(Cl)cc2)n1 [CBK002305],101.396%
7,CN1CCN(C(=O)c2ccccc2N(Cc2ccccc2)S(C)(=O)=O)CC1 [CBK266267],138.517%
8,COC(=O)c1cn(C(=O)CCCN2C(=O)c3ccccc3C2=O)c2ccccc12 [CBK266799],163.109%
9,O=S(=O)(Nc1ccc2[nH]ccc2c1)c1ccc(Br)cc1F [CBK153510],93.5676%
10,O=C(O)CCC(=O)NN1C(=O)c2ccccc2NC1c1ccc(F)cc1 (centres unmarked) [CBK286905],125.702%
11,O=[N+]([O-])c1ccc(Sc2nnc(COc3ccccc3)n2-c2ccccc2)nc1 [CBK265041],68.4251%
12,O=C(O)C1CCCN1C(=O)Nc1ccccc1Cl (centres unmarked) [CBK161381],122.817%
13,Cc1ccc(-c2nnc(CNC(=O)Cc3ccc(F)cc3)o2)s1 [CBK284645],143.055%
14,COc1ccc(Br)cc1/C=N/Nc1nc(NCc2ccccc2)nc(N2CCOCC2)n1 [CBK261232],117.431%
15,COC(=O)c1c(NC(=O)C(Sc2ccccc2)c2ccccc2)sc2c1CCC(C(C)(C)C)C2 (centres unmarked) [CBK262603],109.244%
16,O=C(O)CCCCCNC(=S)Nc1cccc(Cl)c1 [CBK288446],116.403%
17,Cc1nn(C)c(Cl)c1S(=O)(=O)Nc1nn(Cc2ccc(C#N)cc2)c2ccccc12 [CBK048185],96.8325%
18,c1ccc(-c2n[nH]c(-c3ccncc3)c2-c2nc3ccccc3[nH]2)cc1 [CBK262180],117.742%
19,CCN(CC)CCO/N=C1\CC2(CCCCC2)c2ccccc21 [CBK013325],138.383%
20,CCN1CCN(C(=O)c2ccccc2N(Cc2ccccc2)S(=O)(=O)c2ccc(C)cc2)CC1 [CBK266827],124.783%
21,CC(C)NC(=O)CN(C)Cc1nc(-c2cccc(C(F)(F)F)c2)no1 [CBK306036],149.317%
22,CCN(CC)c1ccc(SC)n1C [CBK020929],120.189%
23,CCn1cc(C2CN(S(=O)(=O)c3cccc(COC)c3)CCO2)cn1 (centres unmarked) [CBK304222],88.1984%
24,O=S(=O)(Nc1ccc(C(O)(C(F)(F)F)C(F)(F)F)cc1)c1ccc(Cl)c(Cl)c1 [CBK062102],125.789%
25,COC(=O)c1ccccc1OCCc1csc(NS(=O)(=O)c2cccc(Cl)c2C)n1 [CBK023735],99.8081%
26,COc1cccc(CC(=O)N2CCCC2c2nc3ccccc3[nH]2)c1 (centres unmarked) [CBK283665],116.075%

row,Structure (SMILES),% of control remaining
1,CC1(C)[C@H](Cc2cc(CC3CCCCC3)on2)C[C@@H]1NC(=O)C1CCCC1 [CBK289256],119.524%
2,Cc1ccn(CCNC(=O)c2cccc(N3CCCC3=O)c2)n1 [CBK282642],105.852%
3,COC(=O)c1cn([C@H]2CO[C@H]3[C@@H]2OC[C@@H]3NC(=O)C2CCCCC2)nn1 [CBK289496],114.762%
4,CCn1ncnc1CN1CCN(Cc2ccccc2CO)CC1 [CBK306717],125.681%
5,COc1ccc(-c2cc(C(=O)NCC(O)c3ccc4ccccc4c3)cnc2-c2ccccc2)cn1 (centres unmarked) [CBK037562],88.75%
6,Cc1ccc(C(C)(C)CC(C)NCc2cccc(C(F)(F)F)c2)o1 (centres unmarked) [CBK262872],113.886%
7,CC(C)c1nc(-c2cc3ccccc3[nH]c2=O)no1 [CBK287964],104.283%
8,COC(=O)/N=C1/Nc2ccccc2CN1CC(N)=O [CBK007160],108.731%
9,N=c1n(-c2ccccc2)c(O)c(C(c2ccncc2)c2c(O)n(-c3ccccc3)c(=N)n(-c3ccccc3)c2=O)c(=O)n1-c1ccccc1 (centres unmarked) [CBK261438],100%
10,COC(=O)c1ccc2c(=O)n(CCN3CCOCC3)c(=S)[nH]c2c1 [CBK268553],89.0579%
11,CC(Cc1cnccn1)NC(=O)Nc1cc(N2CCOCC2)ccc1Cl (centres unmarked) [CBK306954],112.541%
12,CCCS(=O)(=O)n1c(=O)n(CCc2c[nH]c3ccccc23)c2ccccc21 [CBK106515],160.182%
13,CC(=O)Nc1ccc(-c2ccc(COC3CCN(C(=O)c4ccc(Cl)c(Cl)c4)CC3)cc2)cc1 [CBK149215],96.0396%
14,COc1ccc(C(=O)NC(=S)Nc2ccc(N3CCN(C)CC3)cc2)cc1[N+](=O)[O-] [CBK266098C],100%
15,Cc1nc(Cl)c(C(=O)NCCc2ccc(S(=O)(=O)NC(=O)NC3CCCCC3)cc2)nc1C [CBK011777],110.61%
16,O=C1CN(Cc2ccccc2)C(=O)N1CC1CCCCC1 [CBK162367],122.937%
17,COc1ccc([C@@]23CC[C@@H](NC(=O)Nc4ccc(F)c(F)c4)C[C@@H]2N(C)CC3)c(F)c1OC [CBK067405],52.3817%
18,CC1(C)CC(=O)C2=C(C1)NC(Nc1nc3ccccc3o1)=NC2c1ccccn1 (centres unmarked) [CBK269978],138.553%
19,CONc1nc(/N=C/N(C)C)nc2c1ncn2C1CC(O)C(CO)O1 (centres unmarked) [CBK201335],183.841%
20,CC1(C)Sc2nc3ccccc3n2C1=O [CBK022971],127.096%
21,Cc1[nH]c2c(C(=O)O)cccc2c1-c1ccccc1 [CBK012486],142.274%
22,Cn1ccnc1C1(O)CCN(C(=O)C2(c3ccccc3)CC2)CC1 [CBK283538],114.603%
23,CCCCN(C(=O)C(F)(F)c1ccccc1)c1c(N)n(CCC)c(=O)[nH]c1=O [CBK297769],164.747%
24,O=C(c1ccc(F)cc1)c1ccc(CSc2nnc3sc4ccccc4n23)cc1 [CBK265553],135.62%
25,Cc1cc(C)nc(N/C(=N\C(=O)c2ccccc2)N2CCC(C(N)=O)CC2)n1 [CBK263910],87.5072%
26,CSc1nnc(SCC(=O)N2CCC(C(F)(F)F)CC2)s1 [CBK057829],122.521%

# Structural class, the compounds so far with bromine (2)
row,Structure (SMILES),% of control remaining
9,O=S(=O)(Nc1ccc2[nH]ccc2c1)c1ccc(Br)cc1F [CBK153510],93.5676%
14,COc1ccc(Br)cc1/C=N/Nc1nc(NCc2ccccc2)nc(N2CCOCC2)n1 [CBK261232],117.431%

# (continued)

row,Structure (SMILES),% of control remaining
1,Cc1csc(C(Cc2ccsc2)NC(=O)c2scnc2C)n1 (centres unmarked) [CBK285098],123.136%
2,Cc1cc(=O)[nH]c(N/N=C/c2ccc(Cl)cc2Cl)n1 [CBK024387],113.802%
3,Nc1ncnc2c1nc(OCc1ccccc1)n2C1CC(O)C(CO)O1 (centres unmarked) [CBK201164],99.5805%
4,CC(Oc1ccc(Cl)cc1Cl)C(=O)Nc1ccc(O)cc1 (centres unmarked) [CBK264120],134.117%
5,CC1CCCN(CC(C)(C)NC(=O)c2cc(C3CC3)on2)C1 (centres unmarked) [CBK281677],141.744%
6,COc1ccccc1CNc1ccc(C(=O)O)cc1 [CBK078187],89.2681%
7,CC(C)Nc1nccnc1SCc1ccc(Cl)c(Cl)c1 [CBK103657],102.106%
8,CCOC(=O)c1c(NC(=O)/C=C/C(=O)O)sc2c1CCCCC2 [CBK265299],100%
9,Cc1csc2c(C3CCN(C(=O)c4ccccn4)CC3)nc(C)n12 [CBK285244],129.158%
10,CC(=O)c1ccc(-c2cc(C(=O)NC3CCc4ccccc43)cnc2-c2ccc(Cl)cc2)s1 (centres unmarked) [CBK036762],119.998%
11,CC(C)c1csc(NC(=O)CC2CCN(S(=O)(=O)c3cccc(F)c3)CC2)n1 [CBK285902],130.079%
12,Cc1nn(-c2ccccc2)c(Cl)c1C1NC(=O)c2c(sc(C)c2C)N1 (centres unmarked) [CBK288086],73.0936%
13,Cc1nnc(C(C)N2CCN(Cc3noc(C(C)(C)C)n3)CC2)o1 (centres unmarked) [CBK305171],92.9128%
14,O=C(c1ccccc1)c1ccc(S(=O)(=O)N2CCCN(Cc3cc(F)c(F)c(F)c3)CC2)cc1 [CBK062777],107.476%
15,O=C(O)c1cccc(NS(=O)(=O)c2ccc(-c3cnco3)cc2)c1 [CBK155726],84.2162%
16,Cc1ccc(C(=O)N2CCN(C(=O)CN3CCN(C)CC3)C2)cc1 [CBK024841C],122.462%
17,O=C(O)C1CSC(c2ccccc2)N1 (centres unmarked) [CBK261008],99.1494%
18,CCN(CC)C(=O)c1ccccc1NS(=O)(=O)c1ccc(OC)c(OC)c1 [CBK045423],56.991%
19,CC(C)CC(=O)N[C@@H](C)Cn1nc(-c2cccs2)oc1=O [CBK284336],97.0118%
20,N=c1n(CCN2CCCC2)c2ccccc2n1CC(O)c1ccc(Cl)c(Cl)c1 (centres unmarked) [CBK263448C],119.407%
21,N#Cc1ccc(Oc2ccc(C(=O)NCC(=O)O)cc2)cc1 [CBK286579],115.483%
22,COC(=O)c1cccc(CN2CCC3(CC2)OCCc2c3[nH]c3ccc(F)cc23)c1 [CBK040326],96.7028%
23,O=C(O)c1ccc(CN2CCOCC2)o1 [CBK261426C],112.038%
24,Cc1ccc(NC(=O)N2CCCC(C(=O)O)C2)cc1 (centres unmarked) [CBK161371],119.177%
25,Cc1cc(NC(=O)C2CCN(C(=O)CCSc3ccccc3)CC2)no1 [CBK304329],129.099%
